Assay results taken from paper PMC8982406.
Results are given in words; binding and its absence hold for the method and conditions named. In cells and extracts the contact can be indirect. Some results given as binding are weak or reduced against the parent protein; the word gives no strength.

T1: endogenous RLIM (Daoy cells) (human (endogenous in Daoy)) (UniProt Q9NVW2)
T1 sequence: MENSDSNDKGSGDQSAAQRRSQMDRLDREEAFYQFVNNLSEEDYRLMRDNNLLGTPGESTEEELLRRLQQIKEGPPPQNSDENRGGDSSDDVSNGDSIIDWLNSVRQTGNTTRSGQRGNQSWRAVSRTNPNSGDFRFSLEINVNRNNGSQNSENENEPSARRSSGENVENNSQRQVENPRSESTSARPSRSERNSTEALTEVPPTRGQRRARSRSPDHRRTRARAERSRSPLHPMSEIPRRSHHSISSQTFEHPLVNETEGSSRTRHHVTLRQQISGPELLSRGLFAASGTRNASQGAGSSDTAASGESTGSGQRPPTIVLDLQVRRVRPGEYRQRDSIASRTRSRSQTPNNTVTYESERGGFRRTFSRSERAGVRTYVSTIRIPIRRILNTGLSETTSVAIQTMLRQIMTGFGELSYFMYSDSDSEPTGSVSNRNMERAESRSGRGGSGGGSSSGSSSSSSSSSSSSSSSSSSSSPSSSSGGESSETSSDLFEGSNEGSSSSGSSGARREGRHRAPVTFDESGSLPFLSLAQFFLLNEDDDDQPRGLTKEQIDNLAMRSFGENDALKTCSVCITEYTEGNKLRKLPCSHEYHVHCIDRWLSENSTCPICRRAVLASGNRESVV

T2: ZC4H2 (wild type; mapping and mutation co-IPs) (UniProt Q9NQZ6)
T2 sequence: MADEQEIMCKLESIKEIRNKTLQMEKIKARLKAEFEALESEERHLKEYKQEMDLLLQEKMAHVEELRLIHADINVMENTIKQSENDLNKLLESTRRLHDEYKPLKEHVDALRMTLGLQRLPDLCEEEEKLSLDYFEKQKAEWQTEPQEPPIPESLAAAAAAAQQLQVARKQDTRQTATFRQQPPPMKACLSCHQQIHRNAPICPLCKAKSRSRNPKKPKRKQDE


Columns and labels:
[1] = target: T1, endogenous RLIM (Daoy cells) (human (endogenous in Daoy)); test: co-IP; endogenous RLIM immunoprecipitated with an RLIM antibody from Daoy cell or Ptch1+/- MB tissue lysate; 50 mM Tris-HCl pH 7.4, 150 mM NaCl, 5 mM EDTA, 1% Triton X-100; 4°C, 4 h; western blotting
[2] = target: T2, ZC4H2 (wild type; mapping and mutation co-IPs); test: co-IP; HEK293 cells transiently transfected with FLAG- or myc-tagged RLIM and ZC4H2 vectors; lysis in 50 mM Tris-HCl pH 7.4, 150 mM NaCl, 5 mM EDTA, 1% Triton X-100; anti-FLAG M2 beads, 4°C, 4 h; western blotting

Row | binding [1] | binding [2] | Binder
1 | binds |  | endogenous ZC4H2 (Daoy cells) (protein, UniProt Q9NQZ6 1-224) MADEQEIMCKLESIKEIRNKTLQMEKIKARLKAEFEALESEERHLKEYKQEMDLLLQEKMAHVEELRLIHADINVMENTIKQSENDLNKLLESTRRLHDEYKPLKEHVDALRMTLGLQRLPDLCEEEEKLSLDYFEKQKAEWQTEPQEPPIPESLAAAAAAAQQLQVARKQDTRQTATFRQQPPPMKACLSCHQQIHRNAPICPLCKAKSRSRNPKKPKRKQDE
2 |  | binds | RLIM R387C (protein, UniProt Q9NVW2 1-624) MENSDSNDKGSGDQSAAQRRSQMDRLDREEAFYQFVNNLSEEDYRLMRDNNLLGTPGESTEEELLRRLQQIKEGPPPQNSDENRGGDSSDDVSNGDSIIDWLNSVRQTGNTTRSGQRGNQSWRAVSRTNPNSGDFRFSLEINVNRNNGSQNSENENEPSARRSSGENVENNSQRQVENPRSESTSARPSRSERNSTEALTEVPPTRGQRRARSRSPDHRRTRARAERSRSPLHPMSEIPRRSHHSISSQTFEHPLVNETEGSSRTRHHVTLRQQISGPELLSRGLFAASGTRNASQGAGSSDTAASGESTGSGQRPPTIVLDLQVRRVRPGEYRQRDSIASRTRSRSQTPNNTVTYESERGGFRRTFSRSERAGVRTYVSTIRIPICRILNTGLSETTSVAIQTMLRQIMTGFGELSYFMYSDSDSEPTGSVSNRNMERAESRSGRGGSGGGSSSGSSSSSSSSSSSSSSSSSSSSPSSSSGGESSETSSDLFEGSNEGSSSSGSSGARREGRHRAPVTFDESGSLPFLSLAQFFLLNEDDDDQPRGLTKEQIDNLAMRSFGENDALKTCSVCITEYTEGNKLRKLPCSHEYHVHCIDRWLSENSTCPICRRAVLASGNRESVV
3 |  | binds | RLIM R599C (protein, UniProt Q9NVW2 1-624) MENSDSNDKGSGDQSAAQRRSQMDRLDREEAFYQFVNNLSEEDYRLMRDNNLLGTPGESTEEELLRRLQQIKEGPPPQNSDENRGGDSSDDVSNGDSIIDWLNSVRQTGNTTRSGQRGNQSWRAVSRTNPNSGDFRFSLEINVNRNNGSQNSENENEPSARRSSGENVENNSQRQVENPRSESTSARPSRSERNSTEALTEVPPTRGQRRARSRSPDHRRTRARAERSRSPLHPMSEIPRRSHHSISSQTFEHPLVNETEGSSRTRHHVTLRQQISGPELLSRGLFAASGTRNASQGAGSSDTAASGESTGSGQRPPTIVLDLQVRRVRPGEYRQRDSIASRTRSRSQTPNNTVTYESERGGFRRTFSRSERAGVRTYVSTIRIPIRRILNTGLSETTSVAIQTMLRQIMTGFGELSYFMYSDSDSEPTGSVSNRNMERAESRSGRGGSGGGSSSGSSSSSSSSSSSSSSSSSSSSPSSSSGGESSETSSDLFEGSNEGSSSSGSSGARREGRHRAPVTFDESGSLPFLSLAQFFLLNEDDDDQPRGLTKEQIDNLAMRSFGENDALKTCSVCITEYTEGNKLRKLPCSHEYHVHCIDCWLSENSTCPICRRAVLASGNRESVV
4 |  | binds | RLIM R611C (protein, UniProt Q9NVW2 1-624) MENSDSNDKGSGDQSAAQRRSQMDRLDREEAFYQFVNNLSEEDYRLMRDNNLLGTPGESTEEELLRRLQQIKEGPPPQNSDENRGGDSSDDVSNGDSIIDWLNSVRQTGNTTRSGQRGNQSWRAVSRTNPNSGDFRFSLEINVNRNNGSQNSENENEPSARRSSGENVENNSQRQVENPRSESTSARPSRSERNSTEALTEVPPTRGQRRARSRSPDHRRTRARAERSRSPLHPMSEIPRRSHHSISSQTFEHPLVNETEGSSRTRHHVTLRQQISGPELLSRGLFAASGTRNASQGAGSSDTAASGESTGSGQRPPTIVLDLQVRRVRPGEYRQRDSIASRTRSRSQTPNNTVTYESERGGFRRTFSRSERAGVRTYVSTIRIPIRRILNTGLSETTSVAIQTMLRQIMTGFGELSYFMYSDSDSEPTGSVSNRNMERAESRSGRGGSGGGSSSGSSSSSSSSSSSSSSSSSSSSPSSSSGGESSETSSDLFEGSNEGSSSSGSSGARREGRHRAPVTFDESGSLPFLSLAQFFLLNEDDDDQPRGLTKEQIDNLAMRSFGENDALKTCSVCITEYTEGNKLRKLPCSHEYHVHCIDRWLSENSTCPICCRAVLASGNRESVV

The next lines start with the binder.

Row | Binder | binding [1] | binding [2]
5 | RLIM R365C (protein, UniProt Q9NVW2 1-624) MENSDSNDKGSGDQSAAQRRSQMDRLDREEAFYQFVNNLSEEDYRLMRDNNLLGTPGESTEEELLRRLQQIKEGPPPQNSDENRGGDSSDDVSNGDSIIDWLNSVRQTGNTTRSGQRGNQSWRAVSRTNPNSGDFRFSLEINVNRNNGSQNSENENEPSARRSSGENVENNSQRQVENPRSESTSARPSRSERNSTEALTEVPPTRGQRRARSRSPDHRRTRARAERSRSPLHPMSEIPRRSHHSISSQTFEHPLVNETEGSSRTRHHVTLRQQISGPELLSRGLFAASGTRNASQGAGSSDTAASGESTGSGQRPPTIVLDLQVRRVRPGEYRQRDSIASRTRSRSQTPNNTVTYESERGGFRCTFSRSERAGVRTYVSTIRIPIRRILNTGLSETTSVAIQTMLRQIMTGFGELSYFMYSDSDSEPTGSVSNRNMERAESRSGRGGSGGGSSSGSSSSSSSSSSSSSSSSSSSSPSSSSGGESSETSSDLFEGSNEGSSSSGSSGARREGRHRAPVTFDESGSLPFLSLAQFFLLNEDDDDQPRGLTKEQIDNLAMRSFGENDALKTCSVCITEYTEGNKLRKLPCSHEYHVHCIDRWLSENSTCPICRRAVLASGNRESVV |  | binds
6 | RLIM P77L (protein, UniProt Q9NVW2 1-624) MENSDSNDKGSGDQSAAQRRSQMDRLDREEAFYQFVNNLSEEDYRLMRDNNLLGTPGESTEEELLRRLQQIKEGPPLQNSDENRGGDSSDDVSNGDSIIDWLNSVRQTGNTTRSGQRGNQSWRAVSRTNPNSGDFRFSLEINVNRNNGSQNSENENEPSARRSSGENVENNSQRQVENPRSESTSARPSRSERNSTEALTEVPPTRGQRRARSRSPDHRRTRARAERSRSPLHPMSEIPRRSHHSISSQTFEHPLVNETEGSSRTRHHVTLRQQISGPELLSRGLFAASGTRNASQGAGSSDTAASGESTGSGQRPPTIVLDLQVRRVRPGEYRQRDSIASRTRSRSQTPNNTVTYESERGGFRRTFSRSERAGVRTYVSTIRIPIRRILNTGLSETTSVAIQTMLRQIMTGFGELSYFMYSDSDSEPTGSVSNRNMERAESRSGRGGSGGGSSSGSSSSSSSSSSSSSSSSSSSSPSSSSGGESSETSSDLFEGSNEGSSSSGSSGARREGRHRAPVTFDESGSLPFLSLAQFFLLNEDDDDQPRGLTKEQIDNLAMRSFGENDALKTCSVCITEYTEGNKLRKLPCSHEYHVHCIDRWLSENSTCPICRRAVLASGNRESVV |  | binds
7 | RLIM P587R (protein, UniProt Q9NVW2 1-624) MENSDSNDKGSGDQSAAQRRSQMDRLDREEAFYQFVNNLSEEDYRLMRDNNLLGTPGESTEEELLRRLQQIKEGPPPQNSDENRGGDSSDDVSNGDSIIDWLNSVRQTGNTTRSGQRGNQSWRAVSRTNPNSGDFRFSLEINVNRNNGSQNSENENEPSARRSSGENVENNSQRQVENPRSESTSARPSRSERNSTEALTEVPPTRGQRRARSRSPDHRRTRARAERSRSPLHPMSEIPRRSHHSISSQTFEHPLVNETEGSSRTRHHVTLRQQISGPELLSRGLFAASGTRNASQGAGSSDTAASGESTGSGQRPPTIVLDLQVRRVRPGEYRQRDSIASRTRSRSQTPNNTVTYESERGGFRRTFSRSERAGVRTYVSTIRIPIRRILNTGLSETTSVAIQTMLRQIMTGFGELSYFMYSDSDSEPTGSVSNRNMERAESRSGRGGSGGGSSSGSSSSSSSSSSSSSSSSSSSSPSSSSGGESSETSSDLFEGSNEGSSSSGSSGARREGRHRAPVTFDESGSLPFLSLAQFFLLNEDDDDQPRGLTKEQIDNLAMRSFGENDALKTCSVCITEYTEGNKLRKLRCSHEYHVHCIDRWLSENSTCPICRRAVLASGNRESVV |  | binds
8 | RLIM D598N (protein, UniProt Q9NVW2 1-624) MENSDSNDKGSGDQSAAQRRSQMDRLDREEAFYQFVNNLSEEDYRLMRDNNLLGTPGESTEEELLRRLQQIKEGPPPQNSDENRGGDSSDDVSNGDSIIDWLNSVRQTGNTTRSGQRGNQSWRAVSRTNPNSGDFRFSLEINVNRNNGSQNSENENEPSARRSSGENVENNSQRQVENPRSESTSARPSRSERNSTEALTEVPPTRGQRRARSRSPDHRRTRARAERSRSPLHPMSEIPRRSHHSISSQTFEHPLVNETEGSSRTRHHVTLRQQISGPELLSRGLFAASGTRNASQGAGSSDTAASGESTGSGQRPPTIVLDLQVRRVRPGEYRQRDSIASRTRSRSQTPNNTVTYESERGGFRRTFSRSERAGVRTYVSTIRIPIRRILNTGLSETTSVAIQTMLRQIMTGFGELSYFMYSDSDSEPTGSVSNRNMERAESRSGRGGSGGGSSSGSSSSSSSSSSSSSSSSSSSSPSSSSGGESSETSSDLFEGSNEGSSSSGSSGARREGRHRAPVTFDESGSLPFLSLAQFFLLNEDDDDQPRGLTKEQIDNLAMRSFGENDALKTCSVCITEYTEGNKLRKLPCSHEYHVHCINRWLSENSTCPICRRAVLASGNRESVV |  | binds
